The nature of this test: qHTS Assay for Lipid Storage Modulators in Drosophila S3 Cells.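 On cell number change: cells counted by Cell Tracker Red CMTPX staining in the red channel.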 The note with it: BODIPY lipid droplet fluorescence, 18-24 h; for cell number change: measured here: cell count max response, cells fed with added oleic acid. An outline of the steps: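 Drosophila S3 cells loaded with oleic acid (400 uM, as added) and compounds at several concentrations; lipid droplets imaged by 488-nm laser-scanning cytometry, 500–530 nm intensity and object ratio to cell channel. Percent activity normalized to 20 uM Triacsin C.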
(qHTS replaces the single test concentration by a dilution series.)

Where [1] appears, read: measured here: lipid fluorescence (Fed channel) AC50, cells fed with added oleic acid.
Where [2] appears, read: measured here: cell number channel AC50, cells fed with added oleic acid.

The AC50 is the concentration at which the activity in the assay is half-maximal. High values mean activity only at high concentration, low ones activity at low concentration.

The list shows a part of the results. Further columns of the screen follow, without active or inactive calls. Most of these compounds were active or inconclusive in the main read-out, so they are no random draw. The note in brackets gives the kind of curve behind each potency; many fits are weak.

On to `CCc1csc(CCNC(=O)C2CCC(=O)N(Cc3ccccc3F)C2)n1` (stereo not drawn), for which the cell number change was -14.4%. Besides, the AC50 under setting [1] was 6.51 µM [falling, single point]. As for `Cc1ccc(NC(=O)CCN2C(=O)NC(C)(C)C2=O)cc1F`, the cell number change is -34.5%. For the compound `CCOc1ccc(NC(=O)CC2C(=O)N(C)C(=S)N2CCCc2ccccc2)cc1` (stereo not drawn), the cell number change worked out at 21.6%. In addition, the half-maximal activity concentration (AC50) under setting [1] was 7.31 µM [rising, partial curve]. In the case of `CCOC(=O)c1cccc(NC(=O)CSc2nc3cccnc3n2C)c1`, the half-maximal activity concentration (AC50) was 1.84 µM [rising, partial curve] under setting [2] and 1.84 µM [rising, partial curve] under setting [1]. `O=C(NCC1CCCO1)c1ccc(Oc2ccc([N+](=O)[O-])cc2Cl)cc1` (stereo not drawn): the cell number change amounted to 26.1%. For the same compound, the half-maximal activity concentration (AC50) under setting [1] is 16.4 µM [rising, partial curve].

With `CC(C)NC(=O)/C(C#N)=C/c1cccc(NC(=O)c2ccccc2Cl)c1`, the cell number change was -32.6%. For the same compound, the concentration at half-maximal activity (AC50) under setting [2] was 32.6 µM [falling, single point]. For the same compound, under setting [1], the AC50 is 8.2 µM [falling, partial curve, poor fit]. Turning to `c1ccc(N2N=C(c3cccs3)CC2c2ccco2)cc1` (stereo not drawn), the cell number change turned out to be 8.13%. In addition, under setting [1], the AC50 is 7.31 µM [rising, partial curve].

For the compound `O=C(NCCc1ccc(C(F)(F)F)cc1)c1ccc2c(c1)OCO2`, the cell number change was -8.9%. The half-maximal activity concentration (AC50) under setting [1] is 0.103 µM [falling, full curve, poor fit]. With `CCc1nc(SCC(=O)c2cccc([N+](=O)[O-])c2)n[nH]1`, the cell number change was -6.66%. `Cc1ccc(NC(=O)CSC2=NN3CCCC(=O)N=C3S2)cc1Cl`: the cell number change came to 170%. Further, the AC50 under setting [2] is 18.4 µM [rising, partial curve]. Consider `CSc1ccccc1OCc1cc(C(=O)N(C)Cc2ccc(C)o2)no1`, for which the cell number change was -29%. Moreover, the concentration at half-maximal activity (AC50) under setting [1] was 20.6 µM [falling, single point]. Regarding `COc1cc(C2NCC(c3ccc(Cl)cc3Cl)c3c2[nH]c2ccccc32)cc(OC)c1OC` (stereo not drawn), the cell number change was -36.3%. Besides, the AC50 under setting [2] was 2.91 µM [falling, full curve]. Under setting [1], the AC50 was 3.66 µM [rising, full curve]. Turning to `CCOC(=O)C(C)Sc1ncc(-c2ccccc2)cn1` (stereo not drawn), the cell number change is -6.13%. For the compound `CN(C(=O)c1ccc(NC(=O)Cc2cccc([N+](=O)[O-])c2)cc1)C1CC1`, the cell number change is -39%. Besides, the half-maximal activity concentration (AC50) under setting [2] was 9.2 µM [falling, single point]. For the same compound, the AC50 under setting [1] is 25.9 µM [falling, single point]. `CN(C(=O)CSc1nnc(-c2ccco2)n1Cc1ccccc1)C1CCS(=O)(=O)C1` (stereo not drawn): the cell number change was -15%. Further, under setting [1], the AC50 is 1.64 µM [falling, partial curve]. Turning to `COC(=O)c1cc(=O)n(Cc2ccco2)c(=Nc2ccc(F)c(Cl)c2)s1`, the cell number change was 3.87%.

In the case of `Cc1ccc2nc(SCc3nnc(-c4ccccc4Br)o3)[nH]c2c1`, the cell number change is -19.4%. For the same compound, the AC50 under setting [1] was 16.4 µM [falling, single point]. In the case of `NC(=O)c1ccc(C2SCC(=O)N2Cc2ccccc2)cc1` (stereo not drawn), the cell number change is -31.6%. Under setting [2], the concentration at half-maximal activity (AC50) is 25.9 µM [falling, single point]. As for `Cc1ccc(NC(=O)C2CCCCC2C(=O)O)cc1C` (stereo not drawn), the cell number change was -0.812%. Besides, the AC50 under setting [1] is 0.461 µM [falling, full curve, poor fit]. As to `CC(C)c1ccc(NC(=O)C2CCCN2S(=O)(=O)c2ccccc2F)cc1` (stereo not drawn), the cell number change was -22.9%. Under setting [2], the concentration at half-maximal activity (AC50) is 1.84 µM [falling, partial curve, poor fit]. Further, the concentration at half-maximal activity (AC50) under setting [1] is 2.06 µM [falling, partial curve, poor fit]. For the compound `COc1ccc(NC(=O)c2ccccc2-c2ccccc2)c(C)c1`, the cell number change worked out at 122%. In addition, under setting [1], the AC50 is 4.11 µM [falling, partial curve, poor fit]. For the compound `Cc1nnc(Nc2ccc(S(N)(=O)=O)cc2)c2ccccc12`, the cell number change amounted to 13.5%. The AC50 under setting [1] is 16.4 µM [rising, single point]. Consider `O=C(Cn1ccc(=O)[nH]c1=O)NCCO`, for which the cell number change is -15.8%. The half-maximal activity concentration (AC50) under setting [1] was 3.26 µM [falling, partial curve, poor fit]. On to `COc1cccc(CC2(CO)CCN(CC3=CC[C@H]4C[C@@H]3C4(C)C)CC2)c1`, for which the cell number change amounted to 17.3%. The AC50 under setting [1] is 5.17 µM [rising, full curve, poor fit]. `O=C(Cn1c(S(=O)(=O)Cc2ccccc2)nc2ccccc21)N1CCCCC1`: the cell number change was -15.3%. In addition, the half-maximal activity concentration (AC50) under setting [1] is 32.6 µM [falling, single point]. In the case of `Cc1ccc(/C=N/NC(=O)c2c(-c3ccccc3)noc2C)c(O)c1`, the cell number change was 4.91%. The AC50 under setting [1] was 29.1 µM [rising, single point]. For `CC1CC(C)CN(C(=O)C2CC(=O)N(c3ccc(F)cc3)C2)C1` (stereo not drawn), the cell number change came out at 7.56%. Consider `COc1ccc(OC)c(NC(=O)CC2SC(=NCc3ccccc3)NC2=O)c1` (stereo not drawn), for which the cell number change was -8.06%. Further, the AC50 under setting [2] was 0.13 µM [rising, full curve, poor fit]. The AC50 under setting [1] was 6.51 µM [rising, single point].

Regarding `O=C(CSc1cccc[n+]1[O-])c1ccc(Cl)cc1`, the cell number change is -1.14%. The concentration at half-maximal activity (AC50) under setting [1] was 6.51 µM [rising, single point]. Take `Cc1ccc(Cn2c(Sc3nnc(C)s3)nc3c2c(=O)[nH]c(=O)n3C)cc1`: the cell number change is 33.5%. The half-maximal activity concentration (AC50) under setting [2] was 32.6 µM [rising, single point]. The half-maximal activity concentration (AC50) under setting [1] was 0.731 µM [rising, partial curve, poor fit]. Consider `Cc1c(C)c2ccc(OCC(=O)NCCCn3ccnc3)c(C)c2oc1=O`, for which the cell number change was -6.37%. The AC50 under setting [1] was 6.51 µM [falling, partial curve, poor fit]. `Cn1nnnc1Sc1ncnc2scc(-c3ccc(Cl)cc3)c12`: the cell number change was 3.44%. In addition, the AC50 under setting [1] was 6.51 µM [rising, single point]. Consider `COc1ccc(C(=O)N/N=C/c2ccc(OC)c(COc3c(F)c(F)cc(F)c3F)c2)cc1`, for which the cell number change amounted to 3.47%. Further, the half-maximal activity concentration (AC50) under setting [1] is 23.1 µM [falling, single point]. Regarding `COc1ccc(-n2c(C)cc(C(=O)CSc3nnc(-c4cccs4)o3)c2C)cc1`, the cell number change was -31.1%. In addition, under setting [2], the half-maximal activity concentration (AC50) is 29.1 µM [falling, single point]. Besides, the AC50 under setting [1] was 0.164 µM [rising, full curve, poor fit]. With `CCn1c2ccccc2c2cc(N)ccc21`, the cell number change was -0.252%. Still for that read-out and setting: the value for `N#Cc1ccccc1CSc1nc(O)cc(=O)[nH]1` was -4.5%; that for `Cc1cnc(C(=O)OCC(=O)c2ccccc2)cn1` was -11%. On to `CC(C)C(=O)N(c1ccc(F)cc1)C1C=CS(=O)(=O)C1` (stereo not drawn), for which the cell number change is -19.9%. Also, the half-maximal activity concentration (AC50) under setting [1] was 8.2 µM [falling, partial curve]. For the compound `Cc1nn(-c2ccccc2)c(Cl)c1/C=N/NC(=O)c1ccn[nH]1`, the cell number change came out at 3.3%. Moreover, under setting [1], the AC50 is 0.116 µM [rising, single point].

As for `CCn1cc(CNC(=O)c2cccc([N+](=O)[O-])c2)cn1`, the cell number change is -66.7%. For the same compound, under setting [2], the AC50 is 20.6 µM [falling, single point]. For the same compound, the AC50 under setting [1] was 29.1 µM [rising, single point]. On to `Cc1ccc(C(=O)C2=C(O)C(=O)N(CCN3CCOCC3)C2c2ccccn2)o1` (stereo not drawn), for which the cell number change is -6.61%. `O=C(O)CCSc1nnc(COc2ccc([N+](=O)[O-])cc2)n1-c1ccccc1`: the cell number change was -0.12%. Also, the AC50 under setting [1] was 1.3 µM [falling, full curve]. Take `N=c1c2c3c(sc2ncn1Nc1ccccc1)CCC3`: the cell number change came out at 17.7%. Also, under setting [1], the half-maximal activity concentration (AC50) was 1.03 µM [rising, partial curve]. Regarding `N#C/C(=C(/O)CN1CCN(c2ccccc2F)CC1)c1nc(-c2ccc(Cl)cc2)cs1`, the cell number change was -36.8%. The AC50 under setting [2] was 29.1 µM [falling, single point]. As to `Cc1ccc(N=Cc2ccc(N(C)C)cc2)cc1`, the cell number change came to 14.8%.

In the case of `CC1CCCN(S(=O)(=O)c2ccc(S(=O)(=O)N3CCC4(CC3)OCCO4)cc2)C1` (stereo not drawn), the cell number change was 14.4%. For the same compound, the AC50 under setting [1] is 0.0651 µM [falling, full curve, poor fit]. `CCOc1ncccc1C(=O)Nc1ccc2nc(C)sc2c1`: the cell number change is -1.25%. Under setting [1], the half-maximal activity concentration (AC50) is 1.16 µM [rising, single point]. Regarding `Cc1ccnc(NS(=O)(=O)c2ccc(NC(=O)c3cc(-c4ccc(Br)cc4)nc4ccccc34)cc2)n1`, the cell number change is -40.8%. For the same compound, the concentration at half-maximal activity (AC50) under setting [2] is 29.1 µM [falling, single point]. Also, the AC50 under setting [1] was 14.6 µM [falling, partial curve, poor fit].

In the case of `O=S(=O)(NCc1cccs1)NCc1ccccc1F`, the AC50 under setting [2] is 1.84 µM [falling, single point]. In the case of `CC/C(O)=C1\C(=O)CC(c2ccccc2)CC1=NCCc1c(C)[nH]c2ccc(C)cc12` (stereo not drawn), the cell number change was 33.1%. Besides, the AC50 under setting [2] is 2.59 µM [rising, partial curve]. Turning to `CCN(CC(=O)NC1CCS(=O)(=O)C1)C(=O)c1ccc(S(=O)(=O)N(CC)CC)cc1` (stereo not drawn), the cell number change amounted to 3.51%. With `COc1ccc(COC(=O)C2=C(C)NC(=O)NC2c2ccccc2OC(C)C)cc1` (stereo not drawn), the cell number change is -0.73%. For the same compound, the AC50 under setting [1] is 29.1 µM [falling, single point]. For the compound `CCOC(=O)c1ccc(N2C(=O)c3n[nH]c(-c4ccco4)c3C2c2ccc([N+](=O)[O-])cc2)cc1` (stereo not drawn), the cell number change is -15.6%. Moreover, the AC50 under setting [1] is 14.6 µM [falling, partial curve, poor fit]. Consider `O=C(NCCCNC(=O)c1cnccn1)c1cccc(F)c1`, for which the cell number change came out at 5.26%. Further, the AC50 under setting [1] was 5.62 µM [falling, single point].

For `CN(C(=S)Nc1ccc(SC(F)F)cc1)C(c1ccccc1)c1ccccc1`, the cell number change is 51.1%. For the compound `COc1ccccc1-c1ccc(/C=C2/C=C(CC(C)C)OC2=O)o1`, the cell number change is -21.5%. Besides, the AC50 under setting [1] was 29.1 µM [falling, single point]. Consider `CC(=O)NC1(C(F)(F)F)N=C2SCCN2C1=O` (stereo not drawn), for which the concentration at half-maximal activity (AC50) is, setting by setting: under setting [2], 0.58 µM [falling, single point]; under setting [1], 0.731 µM [falling, single point]. With `COc1ccc(C2CC3(O)NC(=O)C(C#N)(C3C)C2(C#N)C#N)cc1` (stereo not drawn), the cell number change worked out at 17.5%. Moreover, the AC50 under setting [2] is 4.11 µM [rising, single point]. Consider `COc1ccc(NC(=O)CCCC(=O)OCC(F)(F)C(F)F)cc1`, for which the cell number change was -35.6%. Also, under setting [2], the AC50 was 0.206 µM [falling, full curve, poor fit]. The AC50 under setting [1] was 5.8 µM [falling, partial curve]. As for `COc1ccc(CCN(C)C2CCCN(S(=O)(=O)c3ccccc3)C2)cc1OC` (stereo not drawn), the cell number change stood at 18.1%. Turning to `CC(C)c1nc2sc3c(=O)[nH]c(=S)[nH]c3c2c2c1CCCC2`, the cell number change is 7.26%. For the same compound, the half-maximal activity concentration (AC50) under setting [2] was 0.00651 µM [falling, full curve, poor fit].

These data come from PubChem BioAssay AID2685 (National Center for Advancing Translational Sciences (NCATS), 2010).
